No constants are given. Whether binding was seen depends on the method and setting. Binding seen in cells or lysates may run through a third protein. A result given as binding can be weak or reduced; the word gives no strength.
Biological target: GST-BCL-RAMBO protein (human) (UniProt Q9BXK5)
Test: pull-down; GST or GST-BCL-RAMBO protein (25 µg) with lysate (500 µg protein) of 293T cells expressing FLAG-GRP75 and Glutathione Sepharose 4B beads, 4 °C overnight; Western blotting; only the target purified

Amino acid sequences for entries named in this document (tags omitted). A change or cut given only in a name is not applied to a line headed by its entry. Residues count along the entry.
UniProt Q9BXK5: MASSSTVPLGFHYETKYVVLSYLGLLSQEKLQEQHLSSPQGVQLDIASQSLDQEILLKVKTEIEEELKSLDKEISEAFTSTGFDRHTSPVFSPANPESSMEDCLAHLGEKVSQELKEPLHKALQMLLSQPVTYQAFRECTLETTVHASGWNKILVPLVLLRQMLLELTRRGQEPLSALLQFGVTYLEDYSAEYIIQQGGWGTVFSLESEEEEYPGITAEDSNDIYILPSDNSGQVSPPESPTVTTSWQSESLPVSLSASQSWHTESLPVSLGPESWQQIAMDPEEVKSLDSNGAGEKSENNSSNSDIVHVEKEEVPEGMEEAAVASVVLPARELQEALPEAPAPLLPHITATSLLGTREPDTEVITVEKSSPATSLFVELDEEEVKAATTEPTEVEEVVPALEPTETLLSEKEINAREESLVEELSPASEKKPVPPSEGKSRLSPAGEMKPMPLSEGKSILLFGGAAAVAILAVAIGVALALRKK
UniProt P38646, residues 47-679: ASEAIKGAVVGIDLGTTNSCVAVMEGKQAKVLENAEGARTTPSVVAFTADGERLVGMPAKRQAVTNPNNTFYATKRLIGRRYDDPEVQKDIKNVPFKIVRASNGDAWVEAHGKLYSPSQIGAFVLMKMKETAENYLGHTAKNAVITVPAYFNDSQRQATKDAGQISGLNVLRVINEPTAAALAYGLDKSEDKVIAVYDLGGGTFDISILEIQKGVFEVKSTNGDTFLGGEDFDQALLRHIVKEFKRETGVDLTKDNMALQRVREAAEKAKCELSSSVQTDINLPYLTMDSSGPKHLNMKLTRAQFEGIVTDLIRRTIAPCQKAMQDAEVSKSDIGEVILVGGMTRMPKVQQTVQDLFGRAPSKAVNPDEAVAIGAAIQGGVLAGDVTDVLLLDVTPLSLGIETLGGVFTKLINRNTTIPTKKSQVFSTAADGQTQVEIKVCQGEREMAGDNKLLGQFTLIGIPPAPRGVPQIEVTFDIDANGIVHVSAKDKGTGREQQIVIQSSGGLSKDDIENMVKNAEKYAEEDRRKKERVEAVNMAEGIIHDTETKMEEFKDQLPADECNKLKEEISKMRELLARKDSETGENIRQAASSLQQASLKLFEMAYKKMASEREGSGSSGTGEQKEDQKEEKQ

Substance: FLAG-GRP75, full-length GRP75 (1–679) (from UniProt P38646 47-679)
- binding: binds
